Data as given in the supplement of paper PMC5949888.
Most values lie at the floor of the assay. Slopes are relative: functional sequences can read slightly below zero.

tested on: Saccharomyces cerevisiae PS128 hsf1 delta, HSF1(1-493) fusion; assay: growth estimate (transactivation domain function in HSF1 fusion, heat-shock survival) (a.u. (slope of normalised read count over time)); higher = stronger growth at 37°C, i.e. more transactivation activity; settings: library: random library

Substance | growth estimate
GWLNNLHVVIRQDAFLLKIQ | < -0.25
FSTVTLTNRSPQSKPTFETA | < -0.25
LVSLPCAGILRPYT | < -0.25
YPQKG | < -0.25
PVGHCFLLELTVEKIGPSHV | < -0.25
KECLEYDNVGPRTCEAL | < -0.25
DQSVAETVRAMDVVRGPPVH | < -0.25
TRLSDQLACGKQSSKPPRYP | < -0.25
RRFRKIYRHF | < -0.25
MKYSLTR | < -0.25
MPGVLGIDGPGLLDKHLIAV | < -0.25
RYKLSRYIVATRG | < -0.25
FRTPWEVSRRFPRLFELITF | < -0.25
AEFYRVMCRIYTGAGRVHHF | < -0.25
GLGQGTTCGCPLSTCGSEA | < -0.25
HLGA | < -0.25
GIMFGRHSGQFM | < -0.25
TGIGAYKGPCNAVNVRNGVT | < -0.25
LGGMLNLKTPISLRVVVTQN | < -0.25
VGEIKSTRLPRVQ | < -0.25
KCRTWTTKNAGAMSFYRLFD | < -0.25
FSLECS | < -0.25
SPDGVRVFFVSSRFV | < -0.25

Some of the entries so far, in markdown:

| Substance | growth estimate |
| --- | --- |
| LVSLPCAGILRPYT | < -0.25 |
| KECLEYDNVGPRTCEAL | < -0.25 |
| FRTPWEVSRRFPRLFELITF | < -0.25 |

Remaining list, next part.

Substance | growth estimate
RLHTYVANI | < -0.25
TFDK | < -0.25
RHVLVFRDRERSRIMG | < -0.25
TLFYLVHRADARTLLYSAAI | < -0.253
SFEAGSAFKRGRHCVQTSAH | < -0.25
CNNAMYF | < -0.25
SYGTPGEPSIITGTMIWVME | < -0.25
ASLAIDRWE | < -0.25
VVKPLWLLSL | < -0.25
SPTGG | < -0.25
ETGDRFRHCTE | < -0.25
PDLLDTCL | < -0.25
VIRGMFRRYVFSTTTT | < -0.25
IVRNSRGSIVGFAVGRLWGA | < -0.25
RYTRREHFCTNHRISGKSRV | < -0.25
KMSRCISV | < -0.25
TGFTVILRLGL | < -0.25
SDYTSKPL | < -0.25
VYCYRREGAYVQVSRSEVSS | < -0.25
AVHQSFEFIHGLTGYDMNLV | 0.194
TRMRGLRRHPWEHPDDGLRG | < -0.25
LPMIEWGVL | < -0.25
CQFTE | -0.184

Substance | growth estimate
KVDSCRGHMKA | < -0.25
IMGYVLMICRHSRWMVGGLT | < -0.25
LRLAIVGGPGRSKWLYNYSP | < -0.25
PPRTVPGLLEYEE | < -0.25
VLSPPLPQP | < -0.25
TDVGTISRNHCLIHRNPT | < -0.25
LHHRNKRSGKALRGRHAQET | < -0.25
PFEH | < -0.25
TKRYLPW | < -0.25
LLDQDGKAVWSAVRYAETHH | < -0.25
VLLNNITR | < -0.25
DRVRTGVGYPISCCQYLPTV | < -0.25
LKLEANGVLSSIIIAPDRPN | -0.248
SVPCLASCGVWSFCRFCRAV | -0.248
GLQAW | < -0.25
SQTLTGVTPGL | < -0.25
EFEYIAAVRVLGGCGR | < -0.25
KPTGVRTLPLLRADVPERQT | < -0.25
RVRSGNHSFVDDPDINSSVH | < -0.25
LRTRGQPLL | < -0.25
ANGGADRRLHKQISGD | < -0.25
PVSGERECTCYRLSGASAPS | < -0.25
KVAEGVSRRRRTPATSAAVS | < -0.25

Substance | growth estimate
GGVEAD | < -0.25
FDSGVPEKLCIGDRARRKFG | < -0.25
SHGVRVLDCQGKS | -0.245
NFDLAAVCARVHPKSGLCGV | < -0.25
RTLRRIARTLQPG | < -0.25
RCTAGGLDRETVKRQVLCIC | < -0.25
CARSW | < -0.25
GKGLLRTLIILVKVNFCPVT | < -0.25
VRCTPDNPAQSLRKYGPRAN | < -0.25
WWGMTVHRP | -0.245
VTILLHERSSPSCSRTCTGG | < -0.25
PRARLAGVICTWHESLVREW | < -0.25
LATPADATQKPCILVYVNEG | < -0.25
GIMWFDKFERWLRELNLVG | -0.246
SRGDGCARTPERSIGFRGGG | < -0.25
VGWHRRY | < -0.25
IRYENDPCRYVWQPGRVFST | < -0.25
YWFLLPGALRCFLLAVQLSQ | < -0.25
KCVDFMRLGVLVITFLIFLR | < -0.25
EGWV | < -0.25
LCQTYAIASLHSAASGLY | < -0.25
IERSSHGVMLLRDYGLDEGG | < -0.25
AGDHAHWLFKPASVN | < -0.25

Substance | growth estimate
RFIKYFSNVYFDGSNPRQVL | < -0.25
GLCCFCQFRQT | < -0.25
PMLG | < -0.25
LGMGGPRGLIGWFADLSVFR | < -0.25
RGSSVATGKQSGHWVIVS | < -0.25
VKLR | < -0.25
PST | < -0.25
WPTHYGCAVGIGRGGRHRCC | < -0.25
RKTTFLEP | < -0.25
RCVSPGLHLA | < -0.25
MTDREVWSNNRQNLQNNNKK | < -0.25
LGQIRSMSEPNEHPADNLYW | < -0.25
LYCTSP | < -0.25
RRPAGLHGRIAG | < -0.25
CHRFINTLLSRMGSCYPAKR | < -0.25
DSLLTGNADVVC | < -0.25
KYDFM | < -0.25
GLSCSECGFSPGRLIWAGSM | < -0.25
RDPLRG | < -0.25
DRNQVTGGLYLSAGTGAMII | < -0.25
WVAAPVLVAVDQRS | < -0.25
STFCWVFIVSVTELRAIRQL | < -0.25
LTRQSAESNDVLNF | -0.243

Substance | growth estimate
APVNGTGTRIFDTC | < -0.25
SLGSEAMFTWGQTSASRQT | < -0.25
GIEPLSMLLCPY | < -0.25
AVGSLGTWRGNGEIWGPSTY | < -0.25
LFGVKVRHINLITVVGQDQQ | < -0.25
TGQR | < -0.25
DGLSRVL | < -0.25
HIYTDQTCTRLDRDVVSLGD | < -0.25
GQVDFVSERVYSPGSNLYCA | < -0.25
LVGMREPVGVCSVEWQRKDT | < -0.25
RRVVGPDVTLCSGQQACGVH | < -0.25
IVSVKPGEC | < -0.25
EVFQEIHGVISKNSAIVVRS | < -0.25
ARESMFRKVRFRSRQSWDWP | < -0.25
HEALLVKLWKEALLGIPDRC | < -0.25
LEKR | < -0.25
RWAISQSGFKAVMVTRARKR | < -0.25
TIPKKVLREGWPVRTVLPRH | < -0.25
GPIYVRSYE | < -0.25
FLADTRTP | < -0.25
FWLCKRLGGGCGPRLTHLGA | < -0.25
DHMQ | < -0.25
FDNATFRFWKSCQLARSSLC | < -0.25

Part of the list above, field by field:
DRNQVTGGLYLSAGTGAMII
  growth estimate = < -0.25
WVAAPVLVAVDQRS
  growth estimate = < -0.25
STFCWVFIVSVTELRAIRQL
  growth estimate = < -0.25
LTRQSAESNDVLNF
  growth estimate = -0.243

(continued)

Substance | growth estimate
TKPTYKSPPSGTHRWRVLPP | < -0.25
QCAESGDRRQIRFRCRAQMS | < -0.25
DRVAA | < -0.25
CQEIADTIWVLCRATKCCSR | < -0.25
RLTRGDDIGSFSRDVCKMWR | < -0.25
TPSSHIIFSENHSPNMFLVA | < -0.25
VPRETRATSAGKGYDVQTLC | < -0.25
ARLKVYINVAGEKEGAGLCW | < -0.25
MFV | < -0.25
QLRYNVSTNGVIVIRKKVTH | < -0.25
VCWIHDD | < -0.25
RSTVLRNTRWGHTG | < -0.25
SWGT | < -0.25
YRSYVIVYLCL | < -0.25
QLNE | < -0.25
VRDYPAYPS | < -0.25
RVESNLRKP | < -0.25
KIRGLSRTGWAAGRSFTNRW | < -0.25
LDDVPDFQMSGSSGTHCIDT | < -0.25
SAIFQLKTVAVSLAERVLWP | < -0.25
